Measurements published in paper PMC6025706.
Results are given in words; binding and its absence hold for the method and conditions named. Binding seen in cells or lysates may run through a third protein. Some entries that bind do so weakly or less than the wild type.

Amino acid sequences for entries named in this document (tags omitted). A change or cut given only in a name is not applied to a line headed by its entry. Chains listed by the source or under a name are the forms on record and can include a tag or linker.
UniProt P61586: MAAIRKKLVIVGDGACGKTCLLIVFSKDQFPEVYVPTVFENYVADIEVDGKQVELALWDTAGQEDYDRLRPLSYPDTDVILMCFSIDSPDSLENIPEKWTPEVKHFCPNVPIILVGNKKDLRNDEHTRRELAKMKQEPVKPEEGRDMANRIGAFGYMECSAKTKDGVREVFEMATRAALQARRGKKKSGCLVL
HA-tagged RhoA(V14) (P61586, form named): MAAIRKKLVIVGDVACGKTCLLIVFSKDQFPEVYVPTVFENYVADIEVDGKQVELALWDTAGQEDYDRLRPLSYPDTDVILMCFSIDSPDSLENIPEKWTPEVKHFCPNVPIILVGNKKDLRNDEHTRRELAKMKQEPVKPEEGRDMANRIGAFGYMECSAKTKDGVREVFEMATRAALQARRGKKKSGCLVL
GFP-tagged SV1 (1-825) (O95425-2, form named): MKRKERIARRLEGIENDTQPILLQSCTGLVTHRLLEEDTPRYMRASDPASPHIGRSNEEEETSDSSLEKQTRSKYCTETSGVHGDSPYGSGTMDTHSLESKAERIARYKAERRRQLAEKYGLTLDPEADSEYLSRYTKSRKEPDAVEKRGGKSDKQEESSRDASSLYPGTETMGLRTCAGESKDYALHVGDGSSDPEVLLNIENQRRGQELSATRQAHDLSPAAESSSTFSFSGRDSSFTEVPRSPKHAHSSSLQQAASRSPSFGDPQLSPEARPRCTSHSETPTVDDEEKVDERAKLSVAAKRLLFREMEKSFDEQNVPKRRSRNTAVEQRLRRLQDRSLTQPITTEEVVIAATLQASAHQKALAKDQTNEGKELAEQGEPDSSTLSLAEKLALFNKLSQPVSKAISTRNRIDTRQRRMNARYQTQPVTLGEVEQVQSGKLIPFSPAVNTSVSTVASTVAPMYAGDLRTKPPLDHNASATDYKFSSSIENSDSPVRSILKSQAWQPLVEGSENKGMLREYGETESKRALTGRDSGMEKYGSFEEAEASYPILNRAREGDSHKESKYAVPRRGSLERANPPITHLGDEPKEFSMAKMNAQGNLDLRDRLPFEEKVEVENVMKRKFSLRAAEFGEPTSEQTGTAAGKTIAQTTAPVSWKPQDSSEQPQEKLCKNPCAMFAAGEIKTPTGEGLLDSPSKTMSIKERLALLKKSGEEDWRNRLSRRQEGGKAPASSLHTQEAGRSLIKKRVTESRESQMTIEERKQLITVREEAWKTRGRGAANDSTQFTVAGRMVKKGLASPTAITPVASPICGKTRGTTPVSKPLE

Assays:
HA-tagged RhoA(WT) = HA-tagged RhoA(WT) (UniProt P61586); test: co-IP; HEK293 cells transfected with GFP-tagged supervillin constructs and HA-tagged RhoA; lysates precipitated with anti-HA magnetic beads; immunoblot with anti-HA or anti-GFP
HA-tagged RhoA(V14) = HA-tagged RhoA(V14) (UniProt P61586); test: as above

- binding (HA-tagged RhoA(WT)): binds
- binding (HA-tagged RhoA(V14)): binds
Substance: GFP-tagged SV1 (1-825) (from UniProt O95425-2 1-825) (domain or fragment)
